Percent effect of library compounds

Sequences of proteins named here, by UniProt entry; tags and fusion partners are left off. Residues count along the entry.
UniProt Q8IDJ8, 1-583: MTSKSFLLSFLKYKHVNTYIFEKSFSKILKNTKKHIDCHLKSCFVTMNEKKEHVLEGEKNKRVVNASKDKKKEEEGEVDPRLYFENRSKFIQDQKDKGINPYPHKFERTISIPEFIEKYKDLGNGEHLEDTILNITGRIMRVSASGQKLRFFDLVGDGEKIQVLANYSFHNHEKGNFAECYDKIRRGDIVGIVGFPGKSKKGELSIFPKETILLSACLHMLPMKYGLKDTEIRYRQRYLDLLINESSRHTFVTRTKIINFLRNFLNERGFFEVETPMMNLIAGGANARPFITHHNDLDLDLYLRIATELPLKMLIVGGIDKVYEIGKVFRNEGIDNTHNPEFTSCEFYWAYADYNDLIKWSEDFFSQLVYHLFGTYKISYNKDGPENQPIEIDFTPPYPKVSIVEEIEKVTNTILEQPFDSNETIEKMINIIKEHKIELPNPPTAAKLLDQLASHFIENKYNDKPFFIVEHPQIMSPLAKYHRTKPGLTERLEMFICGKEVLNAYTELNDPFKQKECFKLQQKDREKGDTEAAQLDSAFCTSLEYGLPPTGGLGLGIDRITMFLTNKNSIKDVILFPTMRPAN

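Enzyme assay of the cytosolic lysyl-tRNA synthetase in 384-well plates, read by luminescence. Target: Lysine-tRNA ligase, Plasmodium falciparum 3D7 (UniProt Q8IDJ8). Compounds at 30 µM. Higher reads as stronger inhibition, judged from the few compounds that gave an IC50. Size under these conditions: about 69,000 compounds, about 49 of them at 50% or above in at least one test.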

Results are given as percent effect.
How 0% and 100% were set is not recorded. Most values in the screen are low, and negative values occur.
The compounds are a random part of those screened.

| # | compound | percent effect |
|---|---|---|
| 1 | `Cc1ncc(CN2CCOC(CN(C)c3cccnn3)C2)s1` (configuration not stated) | 20.48 |
| 2 | `COC(=O)CC1CN(Cc2c(Cl)ccc3cccnc23)CCO1` (configuration not stated) | -2.068 |
| 3 | `Cc1cc(C2CCCN(Cc3nc(Cc4ccccc4)no3)C2)n[nH]1` (configuration not stated) | -1.71 |
| 4 | `O=C(C1CC=CC1)N1CC[C@H]2[C@@H]1CCC(=O)N2c1ccccc1` | 5.156 |
| 5 | `Cn1cc(-c2ncnc3c2CCN(C(=O)c2cscn2)CC3)cn1` | 2.283 |
| 6 | `Cc1cc(-c2cnn(CCNC(=O)C3CCCO3)c2C2CC2)on1` (configuration not stated) | 5.764 |
| 7 | `COc1ccc(COCC(=O)N2CCN(CC(C)(C)O)CC2)cc1` | 2.328 |
| 8 | `CN(C)S(=O)(=O)N1CCC(c2c(C(N)=O)sc3ccccc23)C1` (configuration not stated) | -1.675 |
| 9 | `CC(NC(=O)C1=NN(C)C(=O)CC1)c1ccc(F)cc1F` (configuration not stated) | 6.781 |
| 10 | `CC(=O)NCCCSC1CCN(c2c(F)cccc2F)C1=O` (configuration not stated) | -0.3252 |
| 11 | `COc1cccc(-c2cc(NCc3cscn3)n(C)n2)c1` | 5.041 |
| 12 | `CSc1nc(C2CC2)nc(C)c1C(=O)NCc1cc(C)on1` | 2.898 |
| 13 | `CC1=NOC(C(=O)N2CCC(O)(c3ccc4nc(C)ccc4c3)CC2)C1` (configuration not stated) | 2.822 |
| 14 | `Nc1nccc(C2CCN(c3cnccn3)C2)n1` (configuration not stated) | -0.08781 |
| 15 | `CC(CS(C)(=O)=O)N(C(=O)CCc1ccc(Cl)s1)C1CC1` (configuration not stated) | 0.7743 |
| 16 | `Cc1ncoc1C(=O)N1CCOC(CCCC(C)C)C1` (configuration not stated) | 0.4551 |
| 17 | `Cc1ccccc1N1CCN(C(=O)c2cscn2)C(C)C1` (configuration not stated) | 12.93 |
| 18 | `N#Cc1cnn(C(=O)COc2ccccc2F)c1N` | 8.809 |
| 19 | `COc1ccc2c(c1)C(C(=O)N(C)CCCc1nccn1C)CC(=O)N2` (configuration not stated) | -1.495 |
| 20 | `COc1ccc(-n2ncc(C(C)NC3CCOCC3)c2C)cc1` (configuration not stated) | -1.102 |
| 21 | `CC(C(=O)O)N1CC2(CCC1=O)CCN(CCc1ccccc1)CC2` (configuration not stated) | 8.567 |
| 22 | `Cc1noc(C)c1C(=O)NCC(O)c1ccc(F)cc1F` (configuration not stated) | -4.883 |
| 23 | `CN(C)c1ccc(CN(CC2CCCO2)C(=O)c2csnn2)cc1` (configuration not stated) | 2.381 |
| 24 | `COc1c(CNCc2ccnc(N3CCCC3)c2)c(C)nn1C` | 3.073 |
| 25 | `CN(C)S(=O)(=O)N1C[C@H]2C[C@H](C(=O)Nc3ccccc3)[C@@H](C1)O2` | 7.495 |
| 26 | `N#CCc1ccc(OCC(=O)NS(=O)(=O)c2ccc(Br)s2)cc1` | -2.738 |
| 27 | `Cc1cc(-n2cccn2)ccc1CN1CCC(O)(CN2CCCCC2)C1` (configuration not stated) | 2.621 |
| 28 | `CN1CCN(Cc2cscn2)CC(C(=O)N(C)C)C1` (configuration not stated) | 1.847 |
| 29 | `O=C([C@@H]1COC[C@H]2CN(C3CCCC3)C[C@H]21)N1CCC(F)CC1` | -2.901 |
| 30 | `c1ccc(-c2cnc(CNCC3CCCN3c3cccnn3)o2)cc1` (configuration not stated) | 6.95 |
| 31 | `O=C(NCCc1ccncc1)[C@H]1CC[C@@H]2[C@@H](CCN2CC2CC2)O1` | 0.3339 |
| 32 | `CN(C)CCO[C@@H]1CC[C@H]2[C@H]1OCCN2C(=O)c1ccnnc1` | 6.089 |
| 33 | `CSCC(=O)Nc1ncc(I)cc1C` | -6.108 |
| 34 | `Cc1csc2ncc(-c3ccnc(N4CCN(C)CC4)n3)c(=O)n12` | -0.4426 |
| 35 | `CC(C)(C)CC(=O)N1CSCC1C(=O)NC1=NCCS1` (configuration not stated) | -0.2637 |
| 36 | `COCC1CN(Cc2cc(C)on2)Cc2cn(C)nc21` (configuration not stated) | 0.4983 |
| 37 | `O=C(O)c1cc(NS(=O)(=O)c2ccc(Br)s2)c(F)cc1F` | 0.8959 |
| 38 | `CCS(=O)(=O)N1C[C@H]2CN(Cc3ccc(OC)cc3)C(=O)[C@H]2C1` | 4.121 |
| 39 | `CN(C)C(=O)c1cccnc1SCc1ccccc1C#N` | 2.136 |
| 40 | `CCN(C(=O)c1cnc(-c2ccc3c(c2)OCO3)s1)C1CC1` | 7.51 |
| 41 | `Cc1nnc(NCCc2coc(-c3ccccc3)n2)c(C#N)c1C` | 4.827 |
| 42 | `CN(CCOc1ccc(F)cc1)S(=O)(=O)c1cnn(C)c1` | -1.206 |
| 43 | `CN(CC(=O)NC(Cc1ccsc1)c1cccnc1)Cc1ccccn1` (configuration not stated) | -0.2904 |
| 44 | `Cc1cc(NC(C)c2nnn[nH]2)n2nc(C)c(C)c2n1` (configuration not stated) | -1.993 |
| 45 | `CCn1cnnc1CNC(=O)c1ccc(Br)cc1F` | -1.672 |
| 46 | `Cc1nn(C)c2nc(NC(C)c3nnn[nH]3)sc12` (configuration not stated) | -1.63 |
| 47 | `Nc1cnn(CC(=O)N2CCCCC2)c1` | 3.856 |
| 48 | `O=C(c1ccco1)N1CC[C@H]2C[C@@H](c3nccs3)O[C@@H]2C1` | 3.088 |
| 49 | `COc1ccc(OC)c(C2C3=C(COC3=O)Nc3[nH]nc(C)c32)c1` (configuration not stated) | 0.2915 |
| 50 | `Cc1nnc(CN2CCCC2c2ccc3c(c2)OCCO3)n1C` (configuration not stated) | 3.221 |
| 51 | `O=C(CCc1ccncc1)N1CCCC(N2CCNC2=O)C1` (configuration not stated) | 6.154 |

Repeated from the top, 3 entries:

compound	percent effect
Cc1ncc(CN2CCOC(CN(C)c3cccnn3)C2)s1 (configuration not stated)	20.48
COC(=O)CC1CN(Cc2c(Cl)ccc3cccnc23)CCO1 (configuration not stated)	-2.068
Cc1cc(C2CCCN(Cc3nc(Cc4ccccc4)no3)C2)n[nH]1 (configuration not stated)	-1.71

Measurements from “University of Dundee, Small-Polar-MMV Screening Library” (2021), ChEMBL document CHEMBL3988442.